# The campaign covered roughly 390,000 compounds. About 910 (0.23%) were called active. This list was built around the results that the source calls inconclusive (neither active nor inactive); the mix of calls is not that of the screen. Calls follow the shape of the dose curve; as a rule, active = well fitted inhibition curve with a large enough effect; inconclusive = small, poorly fitted or top-dose-only effect; inactive = no such curve, though single readings can be large or run the other way. Potencies beside an inconclusive call are fits to weak or partial responses and may not hold up.
# The chains behind the UniProt entries cited, without tags or fusion partners. Where a name states a change or a piece, a line headed by the entry shows the natural chain unless it says otherwise.
# UniProt O94782: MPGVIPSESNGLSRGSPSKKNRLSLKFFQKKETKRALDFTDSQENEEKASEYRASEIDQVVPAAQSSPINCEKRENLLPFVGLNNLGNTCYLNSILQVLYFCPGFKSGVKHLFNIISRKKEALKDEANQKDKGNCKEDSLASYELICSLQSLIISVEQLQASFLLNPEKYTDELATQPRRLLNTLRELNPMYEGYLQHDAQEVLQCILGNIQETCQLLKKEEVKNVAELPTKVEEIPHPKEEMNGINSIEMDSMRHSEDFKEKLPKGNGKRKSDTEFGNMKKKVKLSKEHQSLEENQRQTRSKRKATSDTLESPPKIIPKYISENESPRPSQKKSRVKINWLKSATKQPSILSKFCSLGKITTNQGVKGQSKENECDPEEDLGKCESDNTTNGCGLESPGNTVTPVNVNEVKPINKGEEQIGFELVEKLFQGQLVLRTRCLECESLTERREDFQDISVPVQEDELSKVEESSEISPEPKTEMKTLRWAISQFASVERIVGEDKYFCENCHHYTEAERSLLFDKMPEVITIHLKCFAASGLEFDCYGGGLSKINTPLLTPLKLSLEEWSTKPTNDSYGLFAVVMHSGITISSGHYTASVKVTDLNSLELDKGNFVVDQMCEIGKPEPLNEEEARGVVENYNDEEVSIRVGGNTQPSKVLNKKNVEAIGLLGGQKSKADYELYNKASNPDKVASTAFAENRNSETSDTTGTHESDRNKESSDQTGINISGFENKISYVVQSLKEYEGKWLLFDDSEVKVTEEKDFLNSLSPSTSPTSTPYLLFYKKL
# Target: Ubiquitin carboxyl-terminal hydrolase 1 (Homo sapiens) (UniProt O94782)
# Test: Inhibitors of USP1/UAF1: Primary Screen; also: nearly all actives have a fitted effect of over 60% in size
# Conditions: recombinant USP1/UAF1, Ub-Rhodamine cleavage fluorescence; series mostly up to 57.1 µM
# How it was run: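 USP1/UAF1 complex at 1 nM was preincubated with compound for 15 min at room temperature, then Ub-Rho substrate (150nM final) was added. Fluorescence (480/540 nm) was read kinetically, 6 reads every 60 seconds.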
# Potency is read from the fitted curve at half-maximal effect.
row,Compound,Potency
1,CCOC(=O)C1CCN(Cc2cc(Cl)c3ccccc3c2O)CC1,"inconclusive: 44.7 µM [inhibitor, partial curve]"
2,CCOc1ccc(CCNC(=O)c2sc3nc4n(c(=O)c3c2C)CCCC4)cc1OCC,"inconclusive: 39.8 µM [inhibitor, single point]"
3,NC(=O)C1CCN(C(=S)c2ccc(-c3ccc(Br)cc3)o2)CC1,"inconclusive: 10 µM [inhibitor, partial curve, poor fit]"
4,O=C(CCCN1C(=O)/C(=C\c2cccs2)SC1=S)Nc1ccc(C(=O)O)cc1,inactive
5,O=[N+]([O-])c1cc([N+](=O)[O-])c(Oc2ccccc2F)cc1NN1CCCCC1,"inconclusive: 5.01 µM [inhibitor, partial curve]"
6,C[C@@H]1CN([C@H](C)CO)C(=O)c2cccc(NC(=O)NC3CCCCC3)c2O[C@@H]1CN(C)C(=O)Nc1ccc(C(F)(F)F)cc1,"inconclusive: 56.2 µM [inhibitor, single point]"
7,Cc1ccc(NC(=O)Cn2cc(C(=O)C3CC3)c3ccccc32)cc1,"inconclusive: 14.1 µM [inhibitor, partial curve, poor fit]"
8,COC/C=C/C1=CC2=CC(=O)C(C)(OC(=O)c3cnc4ccccc4n3)C(=O)C2=CN1c1ccc(OC)cc1 (stereo unspecified),"inconclusive: 50.1 µM [inhibitor, partial curve]"
9,CC(=O)N1CCN=C1SCc1ccc(C)cc1,"inconclusive: 5.01 µM [inhibitor, partial curve]"
10,CCC1CN(C(=O)N2CCC(C(=O)NCCc3ccc(Cl)cc3)CC2)c2ccccc2O1 (stereo unspecified),"inconclusive: 1 µM [inhibitor, full curve]"
11,Cc1nnc(-c2ccccc2)c(=O)n1/N=C/c1c(O)ccc2ccccc12,"inconclusive: 35.5 µM [inhibitor, partial curve, poor fit]"
12,CCOc1ccccc1N1CCN(Cc2cn[nH]c2-c2ccc(F)cc2)CC1,"inconclusive: 50.1 µM [inhibitor, partial curve, poor fit]"
13,CCOc1ccc(S(=O)(=O)N2CCN(Cc3ccccc3)CC2)cc1,inactive
14,CCC(=O)Nc1c(C(=O)N2CCN(c3ccc(F)cc3)CC2)oc2ccccc12,inactive
15,OC(CNCc1ccco1)Cn1c2ccc(Br)cc2c2cc(Br)ccc21 (stereo unspecified),"inconclusive: 0.891 µM [inhibitor, full curve, poor fit]"
16,COCCOC(=O)c1c(C)n(S(=O)(=O)c2ccc(C)cc2)c2ccc(NS(=O)(=O)c3ccc(C)cc3)cc12,"inconclusive: 10 µM [inhibitor, full curve, poor fit]"

# Arranged by molar mass (rising): three of the compounds above
row,Compound,Potency
9,CC(=O)N1CCN=C1SCc1ccc(C)cc1,"inconclusive: 5.01 µM [inhibitor, partial curve]"
12,CCOc1ccccc1N1CCN(Cc2cn[nH]c2-c2ccc(F)cc2)CC1,"inconclusive: 50.1 µM [inhibitor, partial curve, poor fit]"
15,OC(CNCc1ccco1)Cn1c2ccc(Br)cc2c2cc(Br)ccc21 (stereo unspecified),"inconclusive: 0.891 µM [inhibitor, full curve, poor fit]"
